Results taken from the supplement of paper PMC11006884.
This is a selection; strong and weak results do not stand in their true shares.

Sequences of proteins named here, by UniProt entry; tags and fusion partners are left off. A change or cut given only in a name is not applied to a line headed by its entry.
UniProt O00411: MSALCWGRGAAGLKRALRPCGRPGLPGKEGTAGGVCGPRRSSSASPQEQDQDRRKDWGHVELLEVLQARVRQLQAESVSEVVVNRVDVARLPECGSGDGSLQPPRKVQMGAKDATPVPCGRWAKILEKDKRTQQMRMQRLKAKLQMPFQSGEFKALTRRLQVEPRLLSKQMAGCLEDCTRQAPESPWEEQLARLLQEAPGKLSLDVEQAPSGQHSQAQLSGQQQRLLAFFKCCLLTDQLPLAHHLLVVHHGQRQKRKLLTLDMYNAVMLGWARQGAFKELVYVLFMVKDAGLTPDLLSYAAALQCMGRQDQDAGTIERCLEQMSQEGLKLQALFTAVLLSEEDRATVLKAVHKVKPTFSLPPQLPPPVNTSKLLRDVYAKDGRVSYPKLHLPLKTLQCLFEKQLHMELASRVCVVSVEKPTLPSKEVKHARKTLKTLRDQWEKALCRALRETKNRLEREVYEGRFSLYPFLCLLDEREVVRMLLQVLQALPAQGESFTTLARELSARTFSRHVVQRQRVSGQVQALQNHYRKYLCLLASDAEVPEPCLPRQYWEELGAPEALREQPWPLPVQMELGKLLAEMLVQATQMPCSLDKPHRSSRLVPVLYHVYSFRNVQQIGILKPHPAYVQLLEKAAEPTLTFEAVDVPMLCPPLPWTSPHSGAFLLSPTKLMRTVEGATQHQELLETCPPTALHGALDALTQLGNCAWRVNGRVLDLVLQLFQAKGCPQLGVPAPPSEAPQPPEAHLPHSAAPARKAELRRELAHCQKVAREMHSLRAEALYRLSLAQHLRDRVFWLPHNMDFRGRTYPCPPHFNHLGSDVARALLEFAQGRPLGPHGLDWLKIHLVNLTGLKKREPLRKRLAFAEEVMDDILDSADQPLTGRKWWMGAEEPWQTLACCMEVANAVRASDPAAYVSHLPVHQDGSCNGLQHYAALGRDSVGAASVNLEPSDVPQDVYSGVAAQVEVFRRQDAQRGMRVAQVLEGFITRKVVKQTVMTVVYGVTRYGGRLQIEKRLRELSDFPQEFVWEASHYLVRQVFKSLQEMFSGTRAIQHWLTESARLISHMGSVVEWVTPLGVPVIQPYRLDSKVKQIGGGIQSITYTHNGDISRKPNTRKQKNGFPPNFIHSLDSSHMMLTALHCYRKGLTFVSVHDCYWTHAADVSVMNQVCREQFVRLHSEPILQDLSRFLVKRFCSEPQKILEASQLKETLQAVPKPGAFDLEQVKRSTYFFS
UniProt O15304: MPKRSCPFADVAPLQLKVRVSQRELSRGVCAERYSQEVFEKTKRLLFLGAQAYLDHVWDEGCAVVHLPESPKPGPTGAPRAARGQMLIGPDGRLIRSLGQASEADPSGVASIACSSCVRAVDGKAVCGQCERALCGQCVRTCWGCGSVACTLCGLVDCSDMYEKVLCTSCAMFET
UniProt O14964, whole entry, looked up: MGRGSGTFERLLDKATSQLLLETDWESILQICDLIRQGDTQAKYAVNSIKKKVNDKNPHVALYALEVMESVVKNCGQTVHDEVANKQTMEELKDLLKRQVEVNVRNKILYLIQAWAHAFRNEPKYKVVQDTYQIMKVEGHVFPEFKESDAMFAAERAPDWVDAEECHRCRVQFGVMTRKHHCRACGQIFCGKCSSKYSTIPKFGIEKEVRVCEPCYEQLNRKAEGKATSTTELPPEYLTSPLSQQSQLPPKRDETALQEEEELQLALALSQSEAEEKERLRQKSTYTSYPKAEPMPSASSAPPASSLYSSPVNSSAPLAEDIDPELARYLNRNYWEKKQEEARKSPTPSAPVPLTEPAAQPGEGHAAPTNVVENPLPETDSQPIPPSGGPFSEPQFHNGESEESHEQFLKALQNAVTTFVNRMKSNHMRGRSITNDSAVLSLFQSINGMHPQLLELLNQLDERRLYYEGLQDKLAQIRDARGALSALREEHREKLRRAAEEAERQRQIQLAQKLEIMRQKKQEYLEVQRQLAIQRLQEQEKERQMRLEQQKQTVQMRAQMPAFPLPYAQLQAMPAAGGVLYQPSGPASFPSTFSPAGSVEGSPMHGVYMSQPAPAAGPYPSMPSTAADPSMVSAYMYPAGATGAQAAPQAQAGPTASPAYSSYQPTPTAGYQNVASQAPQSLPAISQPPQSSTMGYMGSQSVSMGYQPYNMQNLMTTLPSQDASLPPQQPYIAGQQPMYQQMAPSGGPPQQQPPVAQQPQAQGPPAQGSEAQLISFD
UniProt O15371, whole entry, looked up: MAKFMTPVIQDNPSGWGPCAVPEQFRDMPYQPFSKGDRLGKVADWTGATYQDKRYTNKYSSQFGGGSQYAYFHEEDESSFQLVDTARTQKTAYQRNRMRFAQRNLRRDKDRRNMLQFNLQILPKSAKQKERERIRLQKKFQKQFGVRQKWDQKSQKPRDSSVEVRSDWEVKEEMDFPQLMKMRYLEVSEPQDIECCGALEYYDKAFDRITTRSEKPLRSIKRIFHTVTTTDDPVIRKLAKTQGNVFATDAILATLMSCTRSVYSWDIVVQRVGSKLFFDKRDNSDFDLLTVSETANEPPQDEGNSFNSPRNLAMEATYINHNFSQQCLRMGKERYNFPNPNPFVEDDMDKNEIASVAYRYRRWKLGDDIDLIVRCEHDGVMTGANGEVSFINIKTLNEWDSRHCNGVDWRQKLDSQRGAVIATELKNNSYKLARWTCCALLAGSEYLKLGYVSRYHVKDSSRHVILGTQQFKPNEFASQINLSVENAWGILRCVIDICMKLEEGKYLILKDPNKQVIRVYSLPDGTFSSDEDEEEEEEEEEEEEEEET
UniProt O15381: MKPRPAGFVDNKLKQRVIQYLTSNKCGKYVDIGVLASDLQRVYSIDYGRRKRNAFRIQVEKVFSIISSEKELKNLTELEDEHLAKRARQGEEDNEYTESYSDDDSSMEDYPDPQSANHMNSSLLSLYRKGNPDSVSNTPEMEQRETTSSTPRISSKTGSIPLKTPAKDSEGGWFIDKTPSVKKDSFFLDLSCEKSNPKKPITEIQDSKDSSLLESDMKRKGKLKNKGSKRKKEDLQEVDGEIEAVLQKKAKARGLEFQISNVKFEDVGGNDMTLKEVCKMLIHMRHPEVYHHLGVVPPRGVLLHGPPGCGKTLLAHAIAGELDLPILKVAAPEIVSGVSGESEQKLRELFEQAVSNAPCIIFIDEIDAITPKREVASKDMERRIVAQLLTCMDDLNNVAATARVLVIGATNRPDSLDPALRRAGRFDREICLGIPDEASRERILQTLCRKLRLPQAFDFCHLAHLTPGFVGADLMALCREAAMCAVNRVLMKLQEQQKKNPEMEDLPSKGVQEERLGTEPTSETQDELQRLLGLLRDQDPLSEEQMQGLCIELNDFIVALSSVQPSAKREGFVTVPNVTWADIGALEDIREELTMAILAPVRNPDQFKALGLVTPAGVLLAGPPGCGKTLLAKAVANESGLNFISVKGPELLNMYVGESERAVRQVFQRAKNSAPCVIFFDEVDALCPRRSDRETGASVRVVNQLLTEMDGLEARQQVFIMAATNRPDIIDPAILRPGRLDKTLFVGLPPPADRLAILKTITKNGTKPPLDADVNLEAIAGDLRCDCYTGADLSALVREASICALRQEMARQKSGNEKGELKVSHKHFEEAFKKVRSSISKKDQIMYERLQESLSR
UniProt O14802: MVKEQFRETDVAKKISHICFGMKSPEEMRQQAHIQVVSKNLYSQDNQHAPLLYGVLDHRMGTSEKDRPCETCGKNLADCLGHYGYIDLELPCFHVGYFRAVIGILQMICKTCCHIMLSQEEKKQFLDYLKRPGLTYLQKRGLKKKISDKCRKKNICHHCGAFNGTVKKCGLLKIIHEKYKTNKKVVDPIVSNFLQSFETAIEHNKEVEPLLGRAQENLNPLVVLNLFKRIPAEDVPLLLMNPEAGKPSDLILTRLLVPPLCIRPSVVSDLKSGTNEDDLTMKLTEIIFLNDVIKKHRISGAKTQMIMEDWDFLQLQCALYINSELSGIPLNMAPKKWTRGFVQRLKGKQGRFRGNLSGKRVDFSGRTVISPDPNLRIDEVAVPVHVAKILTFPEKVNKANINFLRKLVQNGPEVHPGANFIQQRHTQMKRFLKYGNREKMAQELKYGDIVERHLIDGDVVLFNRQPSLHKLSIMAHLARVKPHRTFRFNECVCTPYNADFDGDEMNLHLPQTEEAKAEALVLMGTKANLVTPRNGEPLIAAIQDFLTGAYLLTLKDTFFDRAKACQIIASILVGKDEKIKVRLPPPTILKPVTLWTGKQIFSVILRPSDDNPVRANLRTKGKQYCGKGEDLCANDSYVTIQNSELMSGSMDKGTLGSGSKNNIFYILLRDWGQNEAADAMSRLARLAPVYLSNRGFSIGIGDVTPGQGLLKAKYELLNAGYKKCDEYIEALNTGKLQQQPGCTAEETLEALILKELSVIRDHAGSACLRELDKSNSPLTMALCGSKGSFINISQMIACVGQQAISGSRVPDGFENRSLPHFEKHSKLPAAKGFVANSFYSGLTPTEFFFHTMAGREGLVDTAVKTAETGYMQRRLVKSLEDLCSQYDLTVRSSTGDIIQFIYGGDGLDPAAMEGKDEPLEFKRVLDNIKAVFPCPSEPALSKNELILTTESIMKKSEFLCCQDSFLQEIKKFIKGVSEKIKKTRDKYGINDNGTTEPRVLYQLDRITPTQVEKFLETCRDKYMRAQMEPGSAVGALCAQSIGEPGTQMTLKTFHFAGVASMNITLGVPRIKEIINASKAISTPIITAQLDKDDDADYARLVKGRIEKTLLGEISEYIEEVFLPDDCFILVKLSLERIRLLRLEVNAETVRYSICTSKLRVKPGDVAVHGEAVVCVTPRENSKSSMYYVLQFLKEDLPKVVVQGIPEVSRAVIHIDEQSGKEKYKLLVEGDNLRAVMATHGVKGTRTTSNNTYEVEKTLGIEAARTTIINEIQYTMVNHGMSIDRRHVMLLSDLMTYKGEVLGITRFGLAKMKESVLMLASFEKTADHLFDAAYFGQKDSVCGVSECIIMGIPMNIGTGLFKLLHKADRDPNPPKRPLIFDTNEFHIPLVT
UniProt O00410: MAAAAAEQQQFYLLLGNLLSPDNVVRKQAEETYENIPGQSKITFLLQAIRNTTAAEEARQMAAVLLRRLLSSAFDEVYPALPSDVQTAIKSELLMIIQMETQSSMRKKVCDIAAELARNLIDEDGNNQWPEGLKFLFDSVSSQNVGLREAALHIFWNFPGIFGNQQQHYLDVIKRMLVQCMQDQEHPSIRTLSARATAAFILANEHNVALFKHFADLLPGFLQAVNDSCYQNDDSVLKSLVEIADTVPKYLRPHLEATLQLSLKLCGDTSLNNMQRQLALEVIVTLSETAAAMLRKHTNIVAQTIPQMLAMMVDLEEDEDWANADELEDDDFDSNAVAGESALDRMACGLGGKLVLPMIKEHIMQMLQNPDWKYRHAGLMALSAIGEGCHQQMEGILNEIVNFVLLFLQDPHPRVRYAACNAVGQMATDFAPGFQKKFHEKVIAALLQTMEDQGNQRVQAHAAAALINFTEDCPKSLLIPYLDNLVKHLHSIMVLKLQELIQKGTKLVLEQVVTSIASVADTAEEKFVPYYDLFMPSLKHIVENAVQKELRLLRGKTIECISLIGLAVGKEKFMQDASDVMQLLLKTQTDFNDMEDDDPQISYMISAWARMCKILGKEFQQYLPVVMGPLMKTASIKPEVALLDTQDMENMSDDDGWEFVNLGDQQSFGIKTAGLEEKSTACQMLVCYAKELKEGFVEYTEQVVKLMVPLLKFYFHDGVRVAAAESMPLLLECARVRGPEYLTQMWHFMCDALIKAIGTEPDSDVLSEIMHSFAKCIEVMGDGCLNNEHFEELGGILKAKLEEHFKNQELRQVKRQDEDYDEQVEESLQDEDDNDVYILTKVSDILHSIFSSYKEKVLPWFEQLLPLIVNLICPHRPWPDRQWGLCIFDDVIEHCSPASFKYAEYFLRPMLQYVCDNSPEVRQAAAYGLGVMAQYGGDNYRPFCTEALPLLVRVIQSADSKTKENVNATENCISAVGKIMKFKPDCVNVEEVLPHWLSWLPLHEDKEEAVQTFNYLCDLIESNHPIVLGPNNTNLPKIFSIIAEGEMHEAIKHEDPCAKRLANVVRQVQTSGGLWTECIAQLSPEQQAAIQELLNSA
UniProt O15305: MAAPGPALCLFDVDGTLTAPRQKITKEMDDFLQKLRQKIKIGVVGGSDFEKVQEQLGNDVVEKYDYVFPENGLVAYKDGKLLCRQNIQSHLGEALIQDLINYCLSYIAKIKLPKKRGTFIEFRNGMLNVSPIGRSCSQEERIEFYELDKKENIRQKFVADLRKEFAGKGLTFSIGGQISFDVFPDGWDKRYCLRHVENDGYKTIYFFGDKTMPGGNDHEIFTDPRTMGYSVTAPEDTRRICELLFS

compound: COC(=O)C#Cc1ccccc1 [methyl 3-phenylpropiolate]; test: log2 ratio of iodoacetamide-alkyne labeling of the cysteine site, DMSO over compound (competition); higher = stronger covalent engagement of the cysteine by the compound, active = 1 or more; conditions: 500 µM; treatment time 1 h; system: HEK293T cell lysate
How it was run: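 Three replicates, each with duplicate channels, were prepared from HEK293T lysate (2 mg/mL) treated with vehicle or electrophile at 500 µM for 1 h at ambient temperature. Iodoacetamide alkyne was then applied for 1 h, and samples were clicked to sCIP-TMT reagents, pooled, trypsin-digested overnight at 37 °C, enriched on streptavidin, acid-eluted and analysed on Orbitrap Eclipse LC-MS/MS with FAIMS, with FragPipe quantification. The log2 competition ratio per cysteine is the mean control-channel divided by the mean compound-channel reporter intensity. Cysteines quantified in only one replicate were left out.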

log2 ratio of iodoacetamide-alkyne labeling, active:
GTPBP1 C669 (UniProt O00178) 1.13
POM121C C438 (UniProt A8CG34) 1.04
POLRMT C119 (UniProt O00411) 1.22
SIVA1 C6 (UniProt O15304) 1.88

log2 ratio of iodoacetamide-alkyne labeling, inactive:
HGS C215 (UniProt O14964) -0.207
EIF3D C258 (UniProt O15371) 0.08
EEF2K C482 (UniProt O00418) 0.858
NVL C391 (UniProt O15381) 0.0922
EIF3D C327 (UniProt O15371) -0.102
SLC9A3R1 C16 (UniProt O14745) -0.0097
POLR3A C883 (UniProt O14802) 0.187
PSMD12 C255 (UniProt O00232) -0.0937
PHGDH C116 (UniProt O43175) 0.00502
ZSWIM8 C125 (UniProt A7E2V4) 0.374
UniProt O15042_C563 -0.182
PRMT5 C42 (UniProt O14744) -0.126
OGT C323 (UniProt O15294) 0.0604
XPO1 C829 (UniProt O14980) 0.057
NDUFAB1 C140 (UniProt O14561) 0.304
IPO5 C750 (UniProt O00410) 0.168
PPM1G C351 (UniProt O15355) 0.334
TNRC18 C2288 (UniProt O15417) 0.37
PMM2 C103 (UniProt O15305) -0.0926
EIF3D C196 (UniProt O15371) 0.719
BCAT2 C342 (UniProt O15382) -0.00145
CLIC1 C24 (UniProt O00299) -0.0212
UniProt O15042_C65 0.257
CD3EAP C86 (UniProt O15446) 0.236
HGS C212 (UniProt O14964) 0.0422
TAF4 C867 (UniProt O00268) 0.549
UniProt O15111_C406 0.267
UniProt A6NJ78_C172 0.419
ZZEF1 C1259 (UniProt O43149) 0.747
NVL C550 (UniProt O15381) -0.302
UniProt O43159_C332 0.0124
UniProt O00487_C238 0.531
DVL2 C412 (UniProt O14641) 0.134

Reprinted from the listing (two entries):
log2 ratio of iodoacetamide-alkyne labeling, inactive:
PPM1G C351 (UniProt O15355) 0.334
TNRC18 C2288 (UniProt O15417) 0.37
